Assay results taken from publication PMC12158745.
No constants are given. Whether binding was seen depends on the method and setting. In cells and extracts the contact can be indirect. Some binding calls cover weakened binding; strength is not graded here. For some of these results: Sequences can lack the tags named with a protein.

Sequences of proteins named here, by UniProt entry; tags and fusion partners are left off.
UniProt Q61184: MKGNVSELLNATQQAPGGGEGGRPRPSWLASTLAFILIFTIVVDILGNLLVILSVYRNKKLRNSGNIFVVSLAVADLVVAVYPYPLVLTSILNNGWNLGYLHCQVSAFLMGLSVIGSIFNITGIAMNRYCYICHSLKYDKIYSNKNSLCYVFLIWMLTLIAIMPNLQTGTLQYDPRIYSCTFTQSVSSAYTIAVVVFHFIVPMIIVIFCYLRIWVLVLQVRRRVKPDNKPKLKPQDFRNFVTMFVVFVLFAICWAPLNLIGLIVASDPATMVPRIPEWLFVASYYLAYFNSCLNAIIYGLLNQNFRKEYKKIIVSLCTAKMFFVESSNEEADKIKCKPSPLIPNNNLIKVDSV

T1: 2xFlag-MTNR1B (mouse melatonin receptor MTNR1B) (mouse) (UniProt Q8CIQ6)
T1 sequence: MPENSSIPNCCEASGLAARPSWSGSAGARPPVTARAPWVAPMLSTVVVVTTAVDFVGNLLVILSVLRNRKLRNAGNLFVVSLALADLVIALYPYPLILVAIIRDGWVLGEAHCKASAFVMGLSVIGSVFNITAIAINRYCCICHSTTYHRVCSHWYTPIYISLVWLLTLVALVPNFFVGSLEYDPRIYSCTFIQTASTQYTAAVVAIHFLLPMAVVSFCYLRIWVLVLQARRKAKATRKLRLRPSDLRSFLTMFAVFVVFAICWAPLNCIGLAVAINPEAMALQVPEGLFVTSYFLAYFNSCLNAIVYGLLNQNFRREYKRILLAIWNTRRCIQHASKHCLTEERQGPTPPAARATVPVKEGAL

T2: Flag-MTNR1B-VF1 (mouse) (UniProt Q8CIQ6)
T2 sequence: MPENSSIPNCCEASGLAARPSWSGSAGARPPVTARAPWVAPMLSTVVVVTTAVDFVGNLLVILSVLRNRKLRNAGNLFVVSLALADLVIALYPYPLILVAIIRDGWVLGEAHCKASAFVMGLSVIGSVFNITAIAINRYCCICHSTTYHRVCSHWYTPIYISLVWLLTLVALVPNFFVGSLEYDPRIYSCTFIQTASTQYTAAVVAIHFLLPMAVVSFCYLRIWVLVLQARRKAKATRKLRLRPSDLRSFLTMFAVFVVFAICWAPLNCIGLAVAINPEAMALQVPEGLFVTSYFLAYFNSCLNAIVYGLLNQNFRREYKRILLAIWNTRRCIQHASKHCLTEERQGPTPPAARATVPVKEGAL

B1: 3xHA-MRAP2 (mouse melanocortin receptor accessory protein 2) (protein, UniProt D3Z1Q2 1-207)
chain: MEMSAQRLASNRTSPQSPSNSDYTWEYEYYEIGPVSFEGLKAHKYSIVIGFWVGLAVFVIFMFFVLTLLTKTGAPHQDNAESSERRFRMNSFVSDFGKPLESDKVFSRQGNEESRSLFHCYINEVEHLDRVKVCHQTTAIDSDVHLQEASRSSGRPEEELARFMKFDIPNFVNTEQSSFGEDDLLISEAPVLLENKPVSQTSRIDLD
B2: Flag-MRAP2-VF2 (protein, UniProt D3Z1Q2 1-207)
chain: MEMSAQRLASNRTSPQSPSNSDYTWEYEYYEIGPVSFEGLKAHKYSIVIGFWVGLAVFVIFMFFVLTLLTKTGAPHQDNAESSERRFRMNSFVSDFGKPLESDKVFSRQGNEESRSLFHCYINEVEHLDRVKVCHQTTAIDSDVHLQEASRSSGRPEEELARFMKFDIPNFVNTEQSSFGEDDLLISEAPVLLENKPVSQTSRIDLD

Experiments:
[1] = target: 2xFlag-MTNR1A (mouse melatonin receptor MTNR1A) (mouse) (UniProt Q61184); test: co-IP; Flag-MTNR1A or Flag-MTNR1B co-transfected with HA-MRAP2 in HEK293 cells; lysate on Flag Nanoab Agarose beads, 2 h at 4°C, three washes with lysis buffer; blots with anti-HA or anti-Flag
[2] = target: T1, 2xFlag-MTNR1B (mouse melatonin receptor MTNR1B) (mouse); test: as above
[3] = target: T2, Flag-MTNR1B-VF1 (mouse); test: split reporter; BiFC with Venus fragments VF1 (on the receptors) and VF2 (on MRAP2), co-transfected cells fixed 24 h after transfection, confocal microscopy
[4] = target: Flag-MTNR1A-VF1 (mouse) (UniProt Q61184); test: as above

Binder	binding [1]	binding [2]	binding [3]	binding [4]
B1	binds	binds	–	–
B2	–	–	binds	binds
